{"source": "the supplement of paper PMC10077471", "note": "In all, about 1,900 compounds were measured (“excess over highest single agent (ExcessHSA) synergy score, 6x6 matrix”: median about -83, lowest 2% from about -370 on). Some of the results follow."}
{"system": "NCI-H446", "assay": "excess over highest single agent (ExcessHSA) synergy score, 6x6 matrix; higher = less synergy (more negative = stronger synergy)", "details": "72 h; CellTiter-Glo viability"}
{"smiles": "NC(=O)c1noc([C@H](CCCC2CCCCC2)CC(=O)NO)n1", "note": "+ Cc1sc2c(c1C)C(c1ccc(Cl)cc1)=N[C@@H](CC(=O)OC(C)(C)C)c1nnc(C)n1-2 [NCGC00250412-19]", "excess over highest single agent": -77.7}
{"smiles": "Cc1cnc(Nc2ccc(N3CCN(C)CC3)cc2)nc1Nc1cccc(S(=O)(=O)NC(C)(C)C)c1", "note": "+ Cc1sc2c(c1C)C(c1ccc(Cl)cc1)=N[C@@H](CC(=O)OC(C)(C)C)c1nnc(C)n1-2 [NCGC00250412-19]", "excess over highest single agent": -168}
{"smiles": "O=C1NC(=O)/C(=C/c2ccc(-c3ccc(F)cc3O)o2)S1", "note": "+ Cc1sc2c(c1C)C(c1ccc(Cl)cc1)=N[C@@H](CC(=O)OC(C)(C)C)c1nnc(C)n1-2 [NCGC00250412-19]", "excess over highest single agent": 92.3}
{"smiles": "COc1cccc2nc(-c3cccs3)nc(NN3C(=O)C=C(C)C3=O)c12", "note": "+ Cc1sc2c(c1C)C(c1ccc(Cl)cc1)=N[C@@H](CC(=O)OC(C)(C)C)c1nnc(C)n1-2 [NCGC00250412-19]", "excess over highest single agent": -408}
{"smiles": "Cc1ccc(/C=N/NC(=O)c2ccccc2Oc2ccccc2)o1", "note": "+ Cc1sc2c(c1C)C(c1ccc(Cl)cc1)=N[C@@H](CC(=O)OC(C)(C)C)c1nnc(C)n1-2 [NCGC00250412-19]", "excess over highest single agent": 17.3}
{"smiles": "CNC(=O)c1nn(C)c2c1C(C)(C)Cc1cnc(Nc3ccc(N4CCN(C)CC4)cc3)nc1-2", "note": "+ Cc1sc2c(c1C)C(c1ccc(Cl)cc1)=N[C@@H](CC(=O)OC(C)(C)C)c1nnc(C)n1-2 [NCGC00250412-19]", "excess over highest single agent": -348}
{"smiles": "CC(C)(O)CC[C@@H](O)[C@](C)(O)[C@H]1CC[C@@]2(O)C3=CC(=O)[C@@H]4C[C@@H](O)[C@@H](O)C[C@]4(C)[C@H]3CC[C@]12C", "note": "+ Cc1sc2c(c1C)C(c1ccc(Cl)cc1)=N[C@@H](CC(=O)OC(C)(C)C)c1nnc(C)n1-2 [NCGC00250412-19]", "excess over highest single agent": -36.1}
{"smiles": "Cc1ccc(C(C)(O)c2nc3ccccc3s2)c(C)c1", "note": "(stereo not drawn) + Cc1sc2c(c1C)C(c1ccc(Cl)cc1)=N[C@@H](CC(=O)OC(C)(C)C)c1nnc(C)n1-2 [NCGC00250412-19]", "excess over highest single agent": -48.3}
{"smiles": "COc1cc2nc(N3CCN(C(=O)C4CCCO4)CC3)nc(N)c2cc1OC", "note": "(stereo not drawn) + Cc1sc2c(c1C)C(c1ccc(Cl)cc1)=N[C@@H](CC(=O)OC(C)(C)C)c1nnc(C)n1-2 [NCGC00250412-19]", "excess over highest single agent": 23.3}
{"smiles": "CN1CCN(c2cccc(Nc3nc4c(-c5ccc(S(C)(=O)=O)cc5)cccn4n3)c2)CC1", "note": "+ Cc1sc2c(c1C)C(c1ccc(Cl)cc1)=N[C@@H](CC(=O)OC(C)(C)C)c1nnc(C)n1-2 [NCGC00250412-19]", "excess over highest single agent": 53.5}
{"smiles": "Cc1ccc(C2=Nc3ccc(Cl)cc3OC2)cc1", "note": "+ Cc1sc2c(c1C)C(c1ccc(Cl)cc1)=N[C@@H](CC(=O)OC(C)(C)C)c1nnc(C)n1-2 [NCGC00250412-19]", "excess over highest single agent": -211}
{"smiles": "CC(=O)OCC(=O)[C@@]1(O)CC[C@H]2[C@@H]3CCC4=CC(=O)CC[C@]4(C)[C@H]3C(=O)C[C@@]21C", "note": "+ Cc1sc2c(c1C)C(c1ccc(Cl)cc1)=N[C@@H](CC(=O)OC(C)(C)C)c1nnc(C)n1-2 [NCGC00250412-19]", "excess over highest single agent": -62.4}
{"smiles": "CC/C=C\\CC1C(=O)CCC1CC(=O)OC", "note": "(stereo not drawn) + Cc1sc2c(c1C)C(c1ccc(Cl)cc1)=N[C@@H](CC(=O)OC(C)(C)C)c1nnc(C)n1-2 [NCGC00250412-19]", "excess over highest single agent": 223}
{"smiles": "CCCCC(=O)O[C@]1(C(=O)CO)[C@@H](C)C[C@H]2[C@@H]3CCC4=CC(=O)C=C[C@]4(C)[C@@]3(F)[C@@H](O)C[C@@]21C", "note": "+ Cc1sc2c(c1C)C(c1ccc(Cl)cc1)=N[C@@H](CC(=O)OC(C)(C)C)c1nnc(C)n1-2 [NCGC00250412-19]", "excess over highest single agent": -26.5}
{"smiles": "Nc1ccn(C[C@@H](CO)OCP(=O)(O)O)c(=O)n1", "note": "+ Cc1sc2c(c1C)C(c1ccc(Cl)cc1)=N[C@@H](CC(=O)OC(C)(C)C)c1nnc(C)n1-2 [NCGC00250412-19]", "excess over highest single agent": -231}
{"smiles": "FC(F)(F)c1ccc(/C=C/c2nc(COc3ccc(CCCCn4ccnn4)cc3)co2)cc1", "note": "+ Cc1sc2c(c1C)C(c1ccc(Cl)cc1)=N[C@@H](CC(=O)OC(C)(C)C)c1nnc(C)n1-2 [NCGC00250412-19]", "excess over highest single agent": -204}
{"smiles": "CCOP(=O)(OCC)C(C)NC(=O)N(CCCl)N=O", "note": "(stereo not drawn) + Cc1sc2c(c1C)C(c1ccc(Cl)cc1)=N[C@@H](CC(=O)OC(C)(C)C)c1nnc(C)n1-2 [NCGC00250412-19]", "excess over highest single agent": -71}
{"smiles": "CC(=O)OCC1=C(C(=O)O)N2C(=O)[C@@H](N)[C@H]2SC1", "note": "+ Cc1sc2c(c1C)C(c1ccc(Cl)cc1)=N[C@@H](CC(=O)OC(C)(C)C)c1nnc(C)n1-2 [NCGC00250412-19]", "excess over highest single agent": -96.7}
{"smiles": "COc1ccc(Nc2nccc(NCCO)n2)cc1", "note": "+ Cc1sc2c(c1C)C(c1ccc(Cl)cc1)=N[C@@H](CC(=O)OC(C)(C)C)c1nnc(C)n1-2 [NCGC00250412-19]", "excess over highest single agent": 81.9}
{"smiles": "O=C1c2c(O)cc(O)cc2OC(c2ccc(O)c(O)c2)C1O", "note": "(stereo not drawn) + Cc1sc2c(c1C)C(c1ccc(Cl)cc1)=N[C@@H](CC(=O)OC(C)(C)C)c1nnc(C)n1-2 [NCGC00250412-19]", "excess over highest single agent": -160}
{"smiles": "COC1CCC(N(C(=O)C2CCC(C)CC2)c2cc(C3=CCCCC3)sc2C(=O)O)CC1", "note": "(stereo not drawn) + Cc1sc2c(c1C)C(c1ccc(Cl)cc1)=N[C@@H](CC(=O)OC(C)(C)C)c1nnc(C)n1-2 [NCGC00250412-19]", "excess over highest single agent": -93.8}
{"smiles": "C[C@@H]1C(=O)O[C@H]2C[C@@]34[C@H]5C[C@@H](C(C)(C)C)[C@]36[C@@H](OC(=O)[C@@H]6O)O[C@@]4(C(=O)O5)[C@]21O", "note": "+ Cc1sc2c(c1C)C(c1ccc(Cl)cc1)=N[C@@H](CC(=O)OC(C)(C)C)c1nnc(C)n1-2 [NCGC00250412-19]", "excess over highest single agent": -1.49}
{"smiles": "CC(c1cc2ccccc2s1)N(O)C(N)=O", "note": "(stereo not drawn) + Cc1sc2c(c1C)C(c1ccc(Cl)cc1)=N[C@@H](CC(=O)OC(C)(C)C)c1nnc(C)n1-2 [NCGC00250412-19]", "excess over highest single agent": -83.8}
{"smiles": "CC1=C(/C=C/C(C)=C/C=C/C(C)=C/C(=O)Nc2ccc(O)cc2)C(C)(C)CCC1", "note": "+ Cc1sc2c(c1C)C(c1ccc(Cl)cc1)=N[C@@H](CC(=O)OC(C)(C)C)c1nnc(C)n1-2 [NCGC00250412-19]", "excess over highest single agent": -255}
{"smiles": "NC(=O)c1ncn([C@@H]2O[C@H](CO)[C@@H](O)[C@H]2O)c1N", "note": "+ Cc1sc2c(c1C)C(c1ccc(Cl)cc1)=N[C@@H](CC(=O)OC(C)(C)C)c1nnc(C)n1-2 [NCGC00250412-19]", "excess over highest single agent": -85.2}
{"smiles": "CN(C)CCC=C1c2ccccc2C=Cc2ccccc21", "note": "+ Cc1sc2c(c1C)C(c1ccc(Cl)cc1)=N[C@@H](CC(=O)OC(C)(C)C)c1nnc(C)n1-2 [NCGC00250412-19]", "excess over highest single agent": -24.8}
{"smiles": "O=C1c2cccc(O)c2C(=O)c2c(O)cc(CO)cc21", "note": "+ Cc1sc2c(c1C)C(c1ccc(Cl)cc1)=N[C@@H](CC(=O)OC(C)(C)C)c1nnc(C)n1-2 [NCGC00250412-19]", "excess over highest single agent": -83.6}
{"smiles": "CN(C)CCc1c[nH]c2ccc(C[C@H]3COC(=O)N3)cc12", "note": "+ Cc1sc2c(c1C)C(c1ccc(Cl)cc1)=N[C@@H](CC(=O)OC(C)(C)C)c1nnc(C)n1-2 [NCGC00250412-19]", "excess over highest single agent": -149}
{"smiles": "CON=C(C(=O)N[C@@H]1C(=O)N2C(C(=O)O)=C(Cn3ccc(=N)n3CCO)CS[C@H]12)c1csc(N)n1", "note": "+ Cc1sc2c(c1C)C(c1ccc(Cl)cc1)=N[C@@H](CC(=O)OC(C)(C)C)c1nnc(C)n1-2 [NCGC00250412-19]", "excess over highest single agent": 337}
{"smiles": "CC(=O)OCC(=O)[C@@]1(O)[C@H](C)C[C@H]2[C@@H]3C=C(C)C4=Cc5c(cnn5-c5ccccc5)C[C@]4(C)[C@H]3[C@@H](O)C[C@@]21C", "note": "+ Cc1sc2c(c1C)C(c1ccc(Cl)cc1)=N[C@@H](CC(=O)OC(C)(C)C)c1nnc(C)n1-2 [NCGC00250412-19]", "excess over highest single agent": -98.1}
{"smiles": "O=C(NC1CCOCC1)c1ccc(-c2cc(-c3c[nH]nc3-c3ccccn3)ccn2)cc1", "note": "+ Cc1sc2c(c1C)C(c1ccc(Cl)cc1)=N[C@@H](CC(=O)OC(C)(C)C)c1nnc(C)n1-2 [NCGC00250412-19]", "excess over highest single agent": 91.7}
{"smiles": "NS(=O)(=O)c1cc2c(cc1Cl)NCNS2(=O)=O", "note": "+ Cc1sc2c(c1C)C(c1ccc(Cl)cc1)=N[C@@H](CC(=O)OC(C)(C)C)c1nnc(C)n1-2 [NCGC00250412-19]", "excess over highest single agent": -254}
{"smiles": "CNNCc1ccc(C(=O)NC(C)C)cc1", "note": "+ Cc1sc2c(c1C)C(c1ccc(Cl)cc1)=N[C@@H](CC(=O)OC(C)(C)C)c1nnc(C)n1-2 [NCGC00250412-19]", "excess over highest single agent": -66.9}
{"smiles": "O=c1[nH]c(=O)n([C@H]2C[C@H](O)[C@@H](CO)O2)cc1F", "note": "+ Cc1sc2c(c1C)C(c1ccc(Cl)cc1)=N[C@@H](CC(=O)OC(C)(C)C)c1nnc(C)n1-2 [NCGC00250412-19]", "excess over highest single agent": -390}
{"smiles": "COc1cc(C)c(/C=C/C(C)=C/C=C/C(C)=C/C(=O)O)c(C)c1C", "note": "+ Cc1sc2c(c1C)C(c1ccc(Cl)cc1)=N[C@@H](CC(=O)OC(C)(C)C)c1nnc(C)n1-2 [NCGC00250412-19]", "excess over highest single agent": -122}
{"smiles": "CC(C)(F)C[C@H](N[C@@H](c1ccc(-c2ccc(S(C)(=O)=O)cc2)cc1)C(F)(F)F)C(=O)NC1(C#N)CC1", "note": "+ Cc1sc2c(c1C)C(c1ccc(Cl)cc1)=N[C@@H](CC(=O)OC(C)(C)C)c1nnc(C)n1-2 [NCGC00250412-19]", "excess over highest single agent": 59.5}
{"smiles": "CC(=O)OC[C@H]1O[C@@H](n2ccc(=O)[nH]c2=O)[C@H](OC(C)=O)[C@@H]1OC(C)=O", "note": "+ Cc1sc2c(c1C)C(c1ccc(Cl)cc1)=N[C@@H](CC(=O)OC(C)(C)C)c1nnc(C)n1-2 [NCGC00250412-19]", "excess over highest single agent": -10.4}
{"smiles": "CC1(C)[C@@H](O[C@H]2O[C@H](C(=O)O)[C@@H](O)[C@H](O)[C@H]2O[C@@H]2O[C@H](C(=O)O)[C@@H](O)[C@H](O)[C@H]2O)CC[C@]2(C)[C@H]3C(=O)C=C4[C@@H]5C[C@@](C)(C(=O)O)CC[C@]5(C)CC[C@@]4(C)[C@]3(C)CC[C@@H]12", "note": "+ Cc1sc2c(c1C)C(c1ccc(Cl)cc1)=N[C@@H](CC(=O)OC(C)(C)C)c1nnc(C)n1-2 [NCGC00250412-19]", "excess over highest single agent": 11.5}
